Binding data for one substance are collected here from paper PMC5355241.

By UniProt entry, the sequences of proteins in these tests, tags left out.
UniProt Q03468: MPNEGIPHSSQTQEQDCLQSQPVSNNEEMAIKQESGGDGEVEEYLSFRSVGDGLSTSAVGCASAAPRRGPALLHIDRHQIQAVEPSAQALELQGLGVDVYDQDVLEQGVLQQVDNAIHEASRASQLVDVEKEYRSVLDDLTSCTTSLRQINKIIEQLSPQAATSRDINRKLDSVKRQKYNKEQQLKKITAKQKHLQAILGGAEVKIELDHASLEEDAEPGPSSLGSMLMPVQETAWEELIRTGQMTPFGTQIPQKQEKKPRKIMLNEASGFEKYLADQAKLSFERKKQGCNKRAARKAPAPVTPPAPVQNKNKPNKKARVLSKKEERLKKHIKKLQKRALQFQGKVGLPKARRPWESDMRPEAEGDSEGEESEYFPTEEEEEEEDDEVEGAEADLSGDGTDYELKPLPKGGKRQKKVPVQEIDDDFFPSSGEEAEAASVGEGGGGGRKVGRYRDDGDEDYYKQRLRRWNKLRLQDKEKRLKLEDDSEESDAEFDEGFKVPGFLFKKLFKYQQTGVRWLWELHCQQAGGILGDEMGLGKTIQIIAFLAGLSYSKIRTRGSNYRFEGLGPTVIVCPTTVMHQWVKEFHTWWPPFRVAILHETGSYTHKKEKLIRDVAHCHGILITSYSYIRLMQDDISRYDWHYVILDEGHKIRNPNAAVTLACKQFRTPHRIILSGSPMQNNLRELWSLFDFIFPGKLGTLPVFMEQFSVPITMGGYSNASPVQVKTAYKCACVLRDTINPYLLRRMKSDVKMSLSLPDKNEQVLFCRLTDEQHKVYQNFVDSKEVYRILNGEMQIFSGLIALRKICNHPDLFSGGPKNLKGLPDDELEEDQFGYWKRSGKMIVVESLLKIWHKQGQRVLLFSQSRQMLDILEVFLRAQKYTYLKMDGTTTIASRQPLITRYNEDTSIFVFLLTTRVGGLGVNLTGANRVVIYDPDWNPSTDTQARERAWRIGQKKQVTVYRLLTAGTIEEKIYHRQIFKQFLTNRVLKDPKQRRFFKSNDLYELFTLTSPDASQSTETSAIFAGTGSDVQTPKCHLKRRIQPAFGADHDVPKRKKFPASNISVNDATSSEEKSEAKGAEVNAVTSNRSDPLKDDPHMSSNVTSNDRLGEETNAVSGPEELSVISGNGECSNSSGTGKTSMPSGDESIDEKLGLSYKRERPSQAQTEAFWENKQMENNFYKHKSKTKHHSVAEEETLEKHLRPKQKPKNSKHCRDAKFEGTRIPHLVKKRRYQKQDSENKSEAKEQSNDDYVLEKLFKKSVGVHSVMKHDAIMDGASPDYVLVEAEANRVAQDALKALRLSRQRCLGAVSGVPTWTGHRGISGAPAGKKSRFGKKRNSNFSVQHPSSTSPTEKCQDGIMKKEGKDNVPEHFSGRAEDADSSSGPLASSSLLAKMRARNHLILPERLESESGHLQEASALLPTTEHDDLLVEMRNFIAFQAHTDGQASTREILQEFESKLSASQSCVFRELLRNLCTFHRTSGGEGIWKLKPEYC

Results are given in words; binding and its absence hold for the method and conditions named. Binding seen in cells or lysates may run through a third protein. Some entries that bind do so weakly or less than the wild type.

The assay addresses Valosin-containing protein (VCP)/p97 (human (endogenous in HCT116 and CS1AN+iCSB)) (UniProt P55072). The assay is described as follows: co-IP; anti-VCP/p97 antibody, protein A Plus G agarose; RIPA lysates of CS1AN+iCSB cells with and without Dox induction of CSB, 2 h after UV at 20 J/m^2; Western blot for RNAPII and CSB.

In the case of “Cockayne syndrome B protein (CSB) (from UniProt Q03468 1-1493)”, the binding entry is reported as “binds”.
